Measurements: article PMC5519978

The chains behind the UniProt entries cited, without tags or fusion partners. Residues count along the entry.
UniProt P51531, 1379-1508: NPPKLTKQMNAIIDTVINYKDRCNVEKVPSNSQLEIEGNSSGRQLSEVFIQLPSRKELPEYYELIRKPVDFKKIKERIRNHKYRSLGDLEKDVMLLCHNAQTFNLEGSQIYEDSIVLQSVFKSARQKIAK

Biological target: hBRM-A BRD (human) (UniProt P51531)
Assay: NMR titration
Settings: column assigned from text; FA and NMR: 50 mM K phosphate pH 7.0, 50 mM KCl, 0.5 mM EDTA, 1 mM DTT (NMR +10% D2O), 20 C (BRG1 NMR 25 C); recombinant protein; residues 1379-1508

Sequence	Kd
CTCAATTGGT (double strand) [DNAI]	230 µM
CGTAGACAGCT (double strand) [DNAII]	270 µM

Construct, isoform or probe ends are uncertain for at least one entry.
